Data reported in PubChem BioAssay AID2685 (National Center for Advancing Translational Sciences (NCATS), 2010).
This is one part of the list. These are further read-outs of the screen, such as a control signal, another cell line or another target. No call is given for them. Most of these compounds were active or inconclusive in the main read-out, so they are no random draw. Potencies come from curve fits of mixed quality, noted in brackets.

Assay: qHTS Assay for Lipid Storage Modulators in Drosophila S3 Cells;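 for cell number change: cells counted by Cell Tracker Red CMTPX staining in the red channel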
Conditions: BODIPY lipid droplet fluorescence, 18-24 h; for cell number change: measured here: cell count max response, cells fed with added oleic acid
Procedure, shortened: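 Drosophila S3 cells got compounds at several concentrations plus oleic acid (400 uM solution). Laser-scanning cytometry with 488 nm excitation read lipid droplets at 500-530 nm and cells at 575-640 nm. Percent activity was relative to 20 uM Triacsin C.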

[1] = measured here: cell number channel AC50, cells fed with added oleic acid
[2] = measured here: lipid fluorescence (Fed channel) AC50, cells fed with added oleic acid

SMILES	cell number change [%]	AC50 [1]	AC50 [2]
c1ccc(OCc2nnc(-c3ccccc3)o2)cc1	54.6	4.61 µM [rising, full curve]	4.11 µM [rising, full curve, poor fit]
CON/C=N/C(=S)Nc1ncc(C(F)(F)F)cc1Cl	20.1		
C=CCc1cc(/C=N/n2cnnc2)cc(OCC)c1O	-12.5		0.651 µM [falling, single point]
CC(C)(C)C1=Nn2c(nnc2-c2ccco2)SC1	-34.7	0.92 µM [falling, full curve]	
CC(C)(C)c1ccc(C(=O)N2CCC(C(=O)NCc3ccco3)CC2)cc1	-37.3	9.2 µM [falling, partial curve, poor fit]	13 µM [falling, partial curve, poor fit]
O=c1ccc2cc(S(=O)(=O)NCCCc3ccccc3)ccc2[nH]1	2.78		29.1 µM [rising, single point]
CNC(=O)CSc1nnc(-c2ccco2)n1-c1ccccc1OC	-2.23	0.00517 µM [falling, full curve]	
O=C(N/N=C/c1cc([N+](=O)[O-])ccc1O)c1ccc2c(c1)OCCO2	0.352		13 µM [falling, partial curve, poor fit]
COc1ccc2oc(=O)c(-c3cn4ccc(C)cc4n3)cc2c1		2.06 µM [rising, partial curve]	
S=c1[nH]nc(CSc2nc3ccccc3s2)n1Cc1ccccc1	36.7	18.4 µM [rising, single point]	18.4 µM [rising, partial curve]
N#CC(C#N)=NNc1ccc(S(=O)(=O)N2CCCCC2)cc1		2.31 µM [rising, partial curve]	
C=CCS/C(=N\n1cnc2ccccc2c1=O)N1CCCCC1	-7.16		6.51 µM [rising, full curve]
COc1cc(OC)c(NC(=O)Cn2cccc2)cc1Cl	-7.85		0.651 µM [rising, full curve, poor fit]
O=C(N/N=C/c1cccn1-c1ccc(O)cc1)c1cccc2ccccc12	99.1	18.4 µM [rising, single point]	
Cc1ccc(-n2c(SCC(=O)N3Cc4ccccc4CC3C(=O)O)nnc2-c2cccnc2)c(C)c1 (stereo not given)	20.4		23.1 µM [rising, single point]
COc1cc(NC(=O)CCNC(=O)Cn2ccc3ccccc3c2=O)cc(OC)c1OC	3.85		4.11 µM [rising, full curve]
Cc1cccc(-n2ccc(=O)c(C(=O)O)n2)c1	0.945		
CC1CCCCN1C(=O)COC(=O)CNC(=O)c1ccc(Cl)cc1Cl (stereo not given)	-45.8	2.31 µM [falling, full curve]	11.6 µM [falling, partial curve]
CN1CCC(N(C)S(=O)(=O)c2ccc(NC(=O)c3cccc(C#N)c3)cc2)CC1	-23.2		6.51 µM [rising, single point]
O=C(CNC(=O)c1cccs1)N/N=C/c1ccc(Cl)cc1	1.28		14.6 µM [rising, partial curve]

SMILES	cell number change [%]	AC50 [1]	AC50 [2]
O=C1CS/C(=C\S(=O)(=O)c2ccc(Cl)cc2)N1	-9.63		0.366 µM [falling, full curve, poor fit]
O=C(Nc1ccc(Oc2cccc3ccccc23)cc1)c1ccco1	-39.3	11.6 µM [falling, partial curve]	
Cc1cc(SCC#N)n2nc(C)c(-c3ccccc3)c2n1	-35		1.3 µM [falling, full curve, poor fit]
Cc1ccc(C)c(OCCN2CCOCC2)c1	1.1		
CCn1cc(Br)c(C(=O)NC(=S)Nc2ccc(C(=O)OC)cc2)n1	15.3		32.6 µM [falling, single point]
NC(=NC(=O)c1ccccc1)C1=C(O)CCC1=O	-22.3	0.291 µM [falling, full curve, poor fit]	
O=C(Cc1csc(N2CCOCC2)n1)N/N=C/c1ccc(O)c(O)c1O			0.651 µM [falling, single point]
CC(C)Cc1cc(C(=O)N2CCC(N3CCC(C(=O)NC4CC4)CC3)CC2)n[nH]1	-28.3		32.6 µM [falling, single point]
CCCCNC(=O)N(O)C1N(/N=C/c2ccco2)C(=S)SC1(C)C (stereo not given)	30.3	29.1 µM [rising, single point]	
COc1ccccc1N1CCN(C(c2ccc(F)cc2)c2nnnn2C(C)C)CC1 (stereo not given)	-2.37		16.4 µM [rising, single point]
COc1ccc(-c2cc(C(=O)Nc3ccc(C)c(C)c3)no2)cc1	-12		29.1 µM [falling, single point]
CC(C)c1nc(SCC(=O)Nc2cccc(C(=O)O)c2)c2c3c(sc2n1)CCCC3	18		29.1 µM [rising, single point]
O=c1c2cc(Br)ccc2[nH]c(=S)n1Cc1cccnc1	-2.64		0.651 µM [rising, full curve, poor fit]
CCOc1ccc(-c2c(C)n([O-])c3c([n+]2=O)CCCCC3)cc1	-34.9	1.84 µM [falling, partial curve]	1.84 µM [falling, partial curve]
COc1ccc(CNC(=O)C(NC(C)=O)C(=O)Nc2ccc(OC)cc2)cc1 (stereo not given)	23.2		7.31 µM [falling, single point]
Cc1ccccc1-c1nnc(SCC(=O)NCC2CCCO2)o1 (stereo not given)	4.08		0.058 µM [rising, full curve, poor fit]
CN(CCOC(=O)CN1C(=O)c2ccccc2C1=O)C1=NS(=O)(=O)c2ccccc21	-25.2		32.6 µM [falling, partial curve, poor fit]
O=C(Nc1ccccc1C(=O)NCc1ccccc1)c1ccco1	116	25.9 µM [rising, single point]	20.6 µM [rising, partial curve]
COc1cc2nc(=S)n(CCCN3CCOCC3)c(N)c2cc1OC	21.1		
COc1ccc(/C=C/C(=O)NCC(=O)N=Nc2c(O)[nH]c3ccc([N+](=O)[O-])cc23)cc1	20.3		29.1 µM [falling, single point]

Single records, as listed above:
`O=C(Cc1csc(N2CCOCC2)n1)N/N=C/c1ccc(O)c(O)c1O` as listed: AC50 [2]: 0.651 µM [falling, single point]
`Cc1ccc(C)c(OCCN2CCOCC2)c1` as listed: cell number change [%]: 1.1
`COc1ccc(/C=C/C(=O)NCC(=O)N=Nc2c(O)[nH]c3ccc([N+](=O)[O-])cc23)cc1` as listed: cell number change [%]: 20.3; AC50 [2]: 29.1 µM [falling, single point]
`CCCCNC(=O)N(O)C1N(/N=C/c2ccco2)C(=S)SC1(C)C` (stereo not given) as listed: cell number change [%]: 30.3; AC50 [1]: 29.1 µM [rising, single point]

(list continues)

SMILES	cell number change [%]	AC50 [1]	AC50 [2]
COc1ccc(CCN=C(N)NS(=O)(=O)c2cc(F)ccc2F)cc1	-50	29.1 µM [falling, single point]	
COc1ccc(Cc2c(O)nc(SC)n(C(C)=O)c2=O)cc1	-34.7	4.11 µM [falling, full curve]	
O=C(NN=C1CCCCCC1)c1ccncc1	9.83		0.13 µM [rising, full curve, poor fit]
CCCn1c(=O)[nH]c(=O)c2c1nc(-c1ccc(OC(F)F)c(OC)c1)n2CCOC			6.51 µM [rising, single point]
Cc1cccc(NS(=O)(=O)c2cc(C(=O)NCc3ccccn3)ccc2C)c1	13.9		0.103 µM [rising, full curve, poor fit]
Cc1nnc(SC(=O)N2c3ccccc3Sc3ccccc32)s1	88.3	29.1 µM [rising, single point]	20.6 µM [rising, single point]
Cc1ccc(NC(=O)CCCc2nc3ccccc3s2)c(O)c1	-15.2		16.4 µM [falling, single point]
O=C(COC(=O)c1ccc2c(c1)OCCO2)Nc1cc(S(=O)(=O)N2CCOCC2)ccc1Cl	48.6	2.31 µM [rising, full curve]	4.61 µM [rising, full curve]
COC(=O)c1c(NC(=O)c2cccc(S(=O)(=O)N3CCN(C)CC3)c2)sc(C)c1C	6.37	2.06 µM [rising, partial curve]	0.461 µM [rising, full curve]
O=C(Nc1cccnc1)c1cc(-c2ccc(Cl)cc2Cl)on1	-12.8	2.06 µM [rising, single point]	6.51 µM [falling, partial curve]
CC1(c2ccc(Cl)cc2)NC(=O)N(CC(=O)Nc2ccc(F)cc2)C1=O (stereo not given)	23.9	0.0103 µM [rising, full curve, poor fit]	14.6 µM [rising, partial curve]
COc1cccc(C(=O)NC2CC(C)(C)Cc3c2cnn3-c2cccc(F)c2)c1OC (stereo not given)	-12.4		29.1 µM [falling, single point]
COc1ccc(/C=C/c2nnc(NC(=O)CC(C)C)s2)cc1	-29.2		29.1 µM [falling, single point]
CC(=O)C1C(c2ccc(OC(F)F)cc2)NC(=O)NC1(O)C(F)(F)F (stereo not given)	-13.1		
Cc1ccc(C2=NC(C)(C)N=C2SCC(=O)Nc2ccc(Cl)cc2)cc1	10.5		
Cn1c(CNC(=O)c2ccco2)nnc1SCC(=O)N1c2ccccc2Sc2ccccc21	-5.36		
COc1ccc(C(=O)CC(=O)C(=O)NCCc2cccc(C)c2)cc1	69.3	29.1 µM [rising, single point]	29.1 µM [rising, single point]
COc1ccccc1CNC(=O)CCC(=O)Nc1nnc(C)s1	-22.8	6.51 µM [falling, single point]	9.2 µM [falling, single point]
O=C(Nc1nncs1)c1ccc2c(c1)OCO2			6.51 µM [falling, single point]
CCn1c(=O)n(CC(=O)NCC2CCCO2)c(=O)c2c3c(sc21)CCCC3 (stereo not given)	5.19		
